The text below walks through data of patent US20030165934A1.

By UniProt entry, the sequences of proteins in these tests, tags left out. Where a name states a change or a piece, a line headed by the entry shows the natural chain unless it says otherwise.
UniProt P35250: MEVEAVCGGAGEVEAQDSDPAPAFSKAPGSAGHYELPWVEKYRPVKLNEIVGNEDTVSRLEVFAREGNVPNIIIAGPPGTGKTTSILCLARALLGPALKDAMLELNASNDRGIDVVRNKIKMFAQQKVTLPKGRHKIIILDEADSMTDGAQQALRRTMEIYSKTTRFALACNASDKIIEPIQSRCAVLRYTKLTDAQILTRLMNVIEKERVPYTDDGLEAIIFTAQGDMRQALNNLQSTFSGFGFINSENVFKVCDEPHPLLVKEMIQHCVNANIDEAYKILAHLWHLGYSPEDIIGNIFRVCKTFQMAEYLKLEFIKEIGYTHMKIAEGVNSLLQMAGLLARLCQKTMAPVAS

These are yes or no findings as the source states them, for the method shown. Binding seen in cells or lysates may run through a third protein. Some results given as binding are weak or reduced against the parent protein; the word gives no strength. Tags and fused reporters may be left off the sequences shown.

The target in the assay is RFC2-5 subunits (UniProt P35250). The experiment in a line: co-purification through the Flag tag from baculovirus infected insect cells.

B1: recombinant human Rad17 protein tagged with a Flag epitope at its N terminus, purified from baculovirus infected insect cells (protein, not shown: small tags and cut ends)
chain: MNQVTDWVDPSFDDFLECSGVSTITATSLGVNNSSHRRKNGPSTLESSRFPARKRGNLSSLEQIYGLENSKEYLSENEPWVDKYKPETQHELAVHKKKIEEVETWLKAQVLERQPKQGGSILLITGPPGCGKTTTLKILSKEHGIQVQEWINPVLPDFQKDDFKGMFNTESSFHMFPYQSQIAVFKEFLLRATKYNKLQMLGDDLRTDKKIILVEDLPNQFYRDSHTLHEVLRKYVRIGRCPLIFIISDSLSGDNNQRLLFPKEIQEECSISNISFNPVAPTIMMKFLNRIVTIEANKNGGKITVPDKTSLELLCQGCSGDIRSAINSLQFSSSKGENNLRPRKKGMSLKSDAVLSKSKRRKKPDRVFENQEVQAIGGKDVSLFLFRALGKILYCKRASLTELDSPRLPSHLSEYERDTLLVEPEEVVEMSHMPGDLFNLYLHQNYIDFFMEIDDIVRASEFLSFADILSGDWNTRSLLREYSTSIATRGVMHSNKARGYAHCQGGGSSFRPLHKPQWFLINKKYRENCLAAKALFPDFCLPALCLQTQLLPYLALLTIPMRNQAQISFIQDIGRLPLKRHFGRLKMEALTDREHGMIDPDSGDEAQLNGGHSAEESLGEPTQATVPETWSLPLSQNSASELPASQPQPFSAQGDMEENIIIEDYESDGT
With B1, the binding result was “binds”.
